Among the data in the supplement of paper PMC12819154, “High-throughput peptide-centric local stability assay extends protein–ligand identification to membrane proteins, tissues and bacteria” (Nature Structural & Molecular Biology, 2025) are log2 fold change values, retold here.

Protein sequences, listed by entry. Tags and fused reporters are not part of them. Lines headed by an entry give the natural chain unless they say otherwise; changes in a name come on top.
UniProt P57764: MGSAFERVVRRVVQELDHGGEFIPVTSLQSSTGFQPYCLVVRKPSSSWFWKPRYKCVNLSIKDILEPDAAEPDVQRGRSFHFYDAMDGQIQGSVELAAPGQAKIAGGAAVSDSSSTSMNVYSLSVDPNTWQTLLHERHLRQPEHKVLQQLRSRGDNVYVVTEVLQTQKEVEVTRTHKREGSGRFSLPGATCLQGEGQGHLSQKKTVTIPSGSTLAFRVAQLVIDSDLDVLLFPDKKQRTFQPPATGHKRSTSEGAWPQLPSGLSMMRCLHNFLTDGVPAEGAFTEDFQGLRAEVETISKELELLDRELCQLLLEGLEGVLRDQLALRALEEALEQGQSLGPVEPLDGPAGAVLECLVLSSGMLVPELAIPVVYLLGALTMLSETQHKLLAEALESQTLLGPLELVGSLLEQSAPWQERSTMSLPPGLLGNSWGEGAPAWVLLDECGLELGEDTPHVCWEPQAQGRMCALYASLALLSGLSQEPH
UniProt P55957: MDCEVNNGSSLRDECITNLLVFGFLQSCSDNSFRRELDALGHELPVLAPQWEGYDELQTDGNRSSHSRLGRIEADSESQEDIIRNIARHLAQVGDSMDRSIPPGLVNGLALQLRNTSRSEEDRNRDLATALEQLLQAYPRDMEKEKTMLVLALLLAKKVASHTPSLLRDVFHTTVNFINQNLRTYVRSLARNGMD
UniProt P67870, whole entry: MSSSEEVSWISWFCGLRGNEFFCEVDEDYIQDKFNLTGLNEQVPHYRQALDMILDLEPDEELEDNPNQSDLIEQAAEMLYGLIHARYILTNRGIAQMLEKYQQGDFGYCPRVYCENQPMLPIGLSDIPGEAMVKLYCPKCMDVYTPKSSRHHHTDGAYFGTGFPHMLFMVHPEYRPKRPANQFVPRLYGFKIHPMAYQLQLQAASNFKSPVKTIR
UniProt P55211: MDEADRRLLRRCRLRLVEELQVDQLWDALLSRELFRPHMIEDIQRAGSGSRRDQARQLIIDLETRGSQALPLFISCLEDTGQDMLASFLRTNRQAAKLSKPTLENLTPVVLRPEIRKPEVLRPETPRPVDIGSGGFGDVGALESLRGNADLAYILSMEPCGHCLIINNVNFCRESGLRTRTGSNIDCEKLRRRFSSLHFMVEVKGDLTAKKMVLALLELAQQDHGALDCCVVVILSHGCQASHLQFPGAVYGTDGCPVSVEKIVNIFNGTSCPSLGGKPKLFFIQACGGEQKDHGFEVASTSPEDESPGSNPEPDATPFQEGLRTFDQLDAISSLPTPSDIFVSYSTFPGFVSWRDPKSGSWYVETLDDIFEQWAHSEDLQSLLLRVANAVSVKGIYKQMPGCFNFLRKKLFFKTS
UniProt P62834: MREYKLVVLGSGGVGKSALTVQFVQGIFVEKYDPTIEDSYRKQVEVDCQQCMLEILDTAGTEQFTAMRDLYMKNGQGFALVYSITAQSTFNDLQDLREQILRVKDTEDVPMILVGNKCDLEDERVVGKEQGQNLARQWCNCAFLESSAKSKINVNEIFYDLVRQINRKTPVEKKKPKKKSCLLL
UniProt P60983, whole entry: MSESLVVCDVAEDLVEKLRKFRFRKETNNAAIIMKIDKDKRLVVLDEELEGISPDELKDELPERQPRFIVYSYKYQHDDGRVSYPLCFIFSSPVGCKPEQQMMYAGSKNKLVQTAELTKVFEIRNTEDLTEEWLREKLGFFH
UniProt P78381: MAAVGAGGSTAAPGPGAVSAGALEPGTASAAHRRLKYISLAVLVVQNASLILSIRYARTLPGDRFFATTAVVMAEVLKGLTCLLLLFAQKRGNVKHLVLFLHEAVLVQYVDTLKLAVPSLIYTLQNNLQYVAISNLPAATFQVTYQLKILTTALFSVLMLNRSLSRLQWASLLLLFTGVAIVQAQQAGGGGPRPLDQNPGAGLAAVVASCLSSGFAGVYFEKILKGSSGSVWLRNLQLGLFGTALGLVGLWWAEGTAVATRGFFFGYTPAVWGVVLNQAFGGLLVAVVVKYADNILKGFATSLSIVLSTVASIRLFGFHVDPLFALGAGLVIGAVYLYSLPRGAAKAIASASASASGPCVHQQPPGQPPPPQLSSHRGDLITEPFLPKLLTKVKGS
UniProt P78364: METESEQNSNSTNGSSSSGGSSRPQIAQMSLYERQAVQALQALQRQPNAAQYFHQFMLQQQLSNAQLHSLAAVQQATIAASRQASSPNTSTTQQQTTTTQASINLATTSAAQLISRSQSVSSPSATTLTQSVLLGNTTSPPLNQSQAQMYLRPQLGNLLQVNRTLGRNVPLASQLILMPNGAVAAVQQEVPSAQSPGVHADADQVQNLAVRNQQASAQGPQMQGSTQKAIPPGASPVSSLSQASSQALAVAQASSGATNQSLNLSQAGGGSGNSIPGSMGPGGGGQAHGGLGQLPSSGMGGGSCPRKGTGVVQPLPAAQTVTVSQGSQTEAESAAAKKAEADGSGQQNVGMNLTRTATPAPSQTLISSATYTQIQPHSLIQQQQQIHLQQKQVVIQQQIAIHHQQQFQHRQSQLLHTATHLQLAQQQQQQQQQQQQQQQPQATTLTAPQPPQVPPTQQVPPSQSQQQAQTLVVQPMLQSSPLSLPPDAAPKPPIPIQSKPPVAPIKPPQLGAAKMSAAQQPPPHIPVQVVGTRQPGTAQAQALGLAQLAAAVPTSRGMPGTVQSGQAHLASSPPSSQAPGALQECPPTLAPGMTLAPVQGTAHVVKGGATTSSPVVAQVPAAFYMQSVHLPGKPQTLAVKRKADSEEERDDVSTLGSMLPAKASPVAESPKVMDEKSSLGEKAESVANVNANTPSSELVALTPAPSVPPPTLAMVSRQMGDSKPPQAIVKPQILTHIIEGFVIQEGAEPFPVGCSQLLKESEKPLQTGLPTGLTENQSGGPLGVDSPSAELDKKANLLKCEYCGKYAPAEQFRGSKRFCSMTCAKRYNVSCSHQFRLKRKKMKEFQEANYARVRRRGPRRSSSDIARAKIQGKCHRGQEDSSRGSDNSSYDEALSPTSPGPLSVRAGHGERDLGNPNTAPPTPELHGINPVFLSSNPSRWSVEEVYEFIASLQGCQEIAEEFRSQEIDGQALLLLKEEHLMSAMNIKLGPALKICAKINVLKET

The list shows a part of the results. Most values lie at the level of the controls, where differences are scatter.

Compound in this experiment: CN[C@@H]1C[C@H]2O[C@@](C)([C@@H]1OC)n1c3ccccc3c3c4c(c5c6ccccc6n2c5c31)C(=O)NC4 [staurosporine]
As to the kind of experiment: log2 fold change of tryptic peptide abundance, ligand vs vehicle (limited proteolysis) (log2 ratio); higher = more trypsin-susceptible (destabilized). The following applies: ligand concentration: 20 uM; sample: K562 cleared lysate; digestion: 4 min, 22 C (HT-PELSA RT4min, Orbitrap Astral).
In the case of “GSDMD (peptide sequence: STSEGAWPQLPSGLSMMR, peptide start residue: 250) (UniProt P57764)”, the log2 fold change amounted to 0.17.

In the case of “BID (peptide sequence: HLAQVGDSMDR, peptide start residue: 89) (UniProt P55957)”, the log2 fold change was found to be 0.192.

For the target “CSNK2B (peptide sequence: IHPMAYQLQLQAASNFK, peptide start residue: 192) (UniProt P67870)”, the log2 fold change is 0.00048.

Regarding “CASP9 (peptide sequence: TGSNIDCEK, peptide start residue: 181) (UniProt P55211)”, the log2 fold change is 0.301. The result for “UniProt P62834 (peptide sequence: SKINVNEIFYDLVR, peptide start residue: 150)” reads -0.188; that for “UniProt P62888 (peptide sequence: KSLESINSR, peptide start residue: 9)”, 0.201. To “GMFB (peptide sequence: ETNNAAIIMK, peptide start residue: 26) (UniProt P60983)” belongs 0.34. To “SLC35A2 (peptide sequence: GDLITEPFLPK, peptide start residue: 378) (UniProt P78381)” belongs -0.0499; to “RPS3A (peptide sequence: LFCVGFTKKR, peptide start residue: 137) (UniProt P61247)”, 1.33. For the target “PHC1 (peptide sequence: PQIAQMSLYER, peptide start residue: 24) (UniProt P78364)”, the log2 fold change was 0.155. As to “MRPS25 (peptide sequence: VMTVNYNTHGELGEGAR, peptide start residue: 29) (UniProt P82663)”, the log2 fold change was found to be 0.192.
